No constants are given. Whether binding was seen depends on the method and setting. In cells and extracts the contact can be indirect. These calls come from enrichment with a bait or labelling near it, and not all partners need be listed.

The target in this experiment is Taxol-stabilized microtubules (bovine). Nature of the experiment: co-sedimentation + affinity purification with mass spectrometry; Taxol-stabilized bovine brain microtubules added to clarified Xenopus egg extract (with AMP-PNP), 20°C; centrifuged through glycerol cushions; bound proteins eluted first by 20 mM ATP, then by 0.5 M NaCl; 5-40% sucrose gradients, 1D or 2D gels, LC-MS/MS; only the target purified.

B1: Mgc80361 (protein, UniProt Q6AXA1 1-385)
chain: MEKQTEVGVLLTEPGTLHPADEPRTDGGGAAADNGITIRQGSIRAGVGLKEYVAQVLRQLGYNGPLCCEEALVHSAELGAASQHFTSLCVWLVSELKVVSSMVENISPTEGPEDAETFQLEMSGVVNELHCPYTALTTGDVTCRLTNLDNCLQLLVFLSTELQAARIISNRKVPAMGSEGGSTEAVEELKQVGEAVGMPEHLLAVPAAEYMRMLQIKIAEITDAVPDFSRTAPLLKTELQPSQWEKLADLHWQLLREYECRMRMLVTRCDVTVQSFYWSERAKELGAAMKEVYWPLRQSLKTETRITMAHLLAAREEDSRILHTCSAVFRQNTQSSVNKVLMAGNVPDRGGRPNEIEPPMPTWTKRREGGGGQQWWGKRNKRRKK
With B1, the binding entry was “binds”.

B2: HOOK2 (protein, UniProt Q6NRB0 1-721)
chain: MSSKRKVELCDSLLTWMQTFQVSGPCSSYEDLTGGVAIAQVLNRIDPSWFNEAWLVRVKKDTTENWRLKVSNLKRILQSVLEYYQDVLGHPVSDDHIPDVALIGEFSNDTELRKMVQLVLGCAISCDKKEEHIQQIMTLGESVQQAVMESIQELLSKAPSDAVTSESFINYDSQSRKYYFLSEDNDEKNEILQRCHDLEQQVSLLMEEKKNMMGENRTLKEQQEQSGMGTPQLFNKKLLLLQSQIEQLQEENYRLESSRDDYRQRCQELDRDVQELQQRNQDLTGLAHESQALRDEMDVLRHSSDRVGKLESLVDSYKKKLEDLGDLRRQVKLLEERNTMYMQRTFQLEEDLHKANASRGQVESLSRQVQELHKKHSTESLRAEKWQFEFQTLKEKFEALQKERERLIAERDSLRETNDELRCSHLQQTCLGQADLLLSGSSPPLENLAAEIVPAELRETVIRLQQENKMLCAQEASYHERLCDLQNFLEESNRSKNRLESESRLQQQQIKGLKAQVEELQKQLREQGNRAEDSSQLKRKLEEHLEMLHDAHSELQKKREYIETLEPKADLNMSRKVDELQQILHQKEEDMRAMEERYKRYVDKARTVIKSLDPKQQNYIPPEIQALKNQLQEKDTRIRHLETDYEKTKVQRDQEEKLIISAWYNMGMALHQKSTDEKTQPPNGAQSFLAQQRLATNARRGQISRSHTLLPRYTDKRQSLS
Turning to B2, the binding result was “binds”.

B3: MVP (protein, UniProt Q6PF69 1-849)
chain: MSEESIIRIPPYCYIHVLDQNSNISRVETGPKTYIRQDNERVLHHPQRMVMVPPRHYCVIQNPVQRDSEEKVLFDDVGQAKLSHGDKEIRLTQDPFPLYPGEELQLGITPLTVVLANTALHLKALLDLEDESGKYVAGDEWLFEGPGTYIPRKEVEVVQTIQATVIRHNQAIRLRARKECKDREEQDRVTGEEWLVKKVGAYLPGVFEEVVDIVDAFVLTDKRALHIRATKTFRGDKGNLRRTGEEWLVTMEDTEAYIPNVYEEVVGVVDITTLNSRQYCVILDPVGEDGKPQLGQKRVVKGEKSFFLQPGESLEYGIQDVYILSEEEGLVLRALQVLEDKDEEGTEVERKPGDRWMIRGPIEYAPPVEVEVVVRREAIPLDENEGIYVRDIKTGKVRAVVGQSYMLTQDEELWEKELPANVETLLASGKDPLADRSERQGQAQEVQPRDKTRAVTYRVPHNAAVQVYDYREKKSRVVFGPELVVLGPDEQFTVLSLSGSTPKRANVIKAICLLLGPDFCTDIINIETADHARLQIKLSYNWHFDIKDRKDPAEASKLFTVPDFVGDACKAIASRIRGAVASVQFDDFHKNSNRIICSAVFGFDEAMKIRNSFRFPQNNLIITSVDIQTVEPVDQRTRDALQKSVQLAIEITTNSQEATARHEAERLEQEAKGRLERQRITDQAEAEKARKELLELEALSTIVESTGAAKAEAESKAEAARIEGEGAVLQAKLRAEALAIETDAELQRLRQARSEELRYLQDKNKLEVQKTQELAEIEIKKFREMVESIGSGTLRDIALAGPELQVKMLRGLGIQSTLITDGSTPINLFSTAHGLLGLTSKPAQEKESD
As for B3, the binding result is “binds”.

B4: Lis1 (protein, UniProt Q90ZL4 1-410)
chain: MVLSQRQRDELNRAIADYLRSNGYEEAYSVFKKEAELDMNEELDIKYAGLLEKKWTSVIRLQKKVMELESKLNEAKEEFTSGGPIGQKRDPKEWIPRPPEKYALSGHRSPVTRVIFHPVFSVMVTASEDATIKVWDYETGDFERTLKGHTDSVQDISFDHSGKLLASCSADMTIKLWDFQGFECLRTMHGHDHNVSSVAIMPNGDHIVSASRDKTIKMWEVQTGYCVKTFTGHREWVRMVRPNQDGTLIASCSNDQTVRVWVVATKECKAELREHEHVVECISWAPESSYSTISDATGSETKRSGKPGPFLLSGSRDKTIKMWDISIGMCLMTLVGHDNWVRGVQFHPGGKFILSCADDKTIRIWDYKNKRCMKTLNAHEHFVTSLDFHKTAPYVVTGSVDQTVKVWECR
In the case of B4, the binding result is given as “binds”.

B5: Nif3l1bp1/THOC7 (protein, UniProt Q7SZ78 1-201)
chain: MGAVTDDEVIRKRLLIDGDGAGDDRRINLLVKSFVKWCNSGSQEEGYSQYQRMLSSLSQCEYSMGKTLLVHDMNLREMENYEKIYVDIESSIAAAHEKIAECKKQILQAKRIRKNRQEYDALAKVIEQHPDRHETLKQLEALDKELKQLSHTKENAEDKLELRRKQFHVLLSTIHELQQTLENDDKLAEESQESPMETQNP
In the case of B5, the binding result was “binds”.

B6: XKid (protein, UniProt Q9I869 1-651)
chain: MVLTGPLQRESVSMAKRVSMLDQHKKSSCARVRVAVRLRPYMDEKDEAKATTVCVRGLDSQSLEIVNWRNQLETMQYQFDAFYGDSASQREIYMGSVCHILPHLLIGQNASVFAYGPTGAGKTHTMLGNPNQPGVIPRAVRDLLQMSRTAASAPENENWTYTINMSYVEIYQEKVMDLLEPKNKDLPIREDKDHNILIPGVTQKMINSFADFDEHFIPASQNRTVASTKLNDRSSRSHAVLLIKVQKSQQVVPFRQLTGKLYLIDLAGSEDNRRTGNQGIRLKESGAINSSLFTLSKVVDALNQGLPRIPYRDSKLTRLLQDSLGGSAHSVMITNIAPEQTYYFDTLTALNFAAKSKQIINKPFSQETTQTVVQPAMKRPREETGHIAGSQKRKKSKNDSTESSPNSSMDTAGKQKLNLATLDPAVVERLLKLDKILTEKGKKKAQLLSTPKRERMALLKKWEESQMEIERLKEKQKELEQKAMEAEARLEKSNNSDLSDSSVSENTFRAPLRGRNTSTAKVKKVLRVLPMQGNSQLQSTVEEGIPVFEKKKKKKQVTCEGLENQPTWEMNMRTDLLESGKERILKLLNTGSVKELKSLQRIGDKKAKLIIGWREVNGPFKNVEELACLEGISAKQVSSFIKANIMSSIAS
As for B6, the binding result is on record as “binds”.

B7: CKI-α (protein, UniProt P67963 1-337)
chain: MASSSGSKAEFIVGGKYKLVRKIGSGSFGDIYLAINITNGEEVAVKLESQKARHPQLLYESKLYKILQGGVGIPHIRWYGQEKDYNVLVMDLLGPSLEDLFNFCSRRFTMKTVLMLADQMISRIEYVHTKNFIHRDIKPDNFLMGIGRHCNKLFLIDFGLAKKYRDNRTRQHIPYREDKNLTGTARYASINAHLGIEQSRRDDMESLGYVLMYFNRTSLPWQGLKAATKKQKYEKISEKKMSTPVEVLCKGFPAEFAMYLNYCRGLRFEEAPDYMYLRQLFRILFRTLNHQYDYTFDWTMLKQKAAQQAASSSGQGQQAQTPTGKQTDKSKSNMKGF
As to B7, the binding entry is given as “binds”.

Source of the values: paper PMC2822853.
